Data published in article PMC5809941.
No constants are given. Whether binding was seen depends on the method and setting. Some binding calls cover weakened binding; strength is not graded here. Tags and fused reporters may be left off the sequences shown.

Amino acid sequences for entries named in this document (tags omitted).
UniProt P98170: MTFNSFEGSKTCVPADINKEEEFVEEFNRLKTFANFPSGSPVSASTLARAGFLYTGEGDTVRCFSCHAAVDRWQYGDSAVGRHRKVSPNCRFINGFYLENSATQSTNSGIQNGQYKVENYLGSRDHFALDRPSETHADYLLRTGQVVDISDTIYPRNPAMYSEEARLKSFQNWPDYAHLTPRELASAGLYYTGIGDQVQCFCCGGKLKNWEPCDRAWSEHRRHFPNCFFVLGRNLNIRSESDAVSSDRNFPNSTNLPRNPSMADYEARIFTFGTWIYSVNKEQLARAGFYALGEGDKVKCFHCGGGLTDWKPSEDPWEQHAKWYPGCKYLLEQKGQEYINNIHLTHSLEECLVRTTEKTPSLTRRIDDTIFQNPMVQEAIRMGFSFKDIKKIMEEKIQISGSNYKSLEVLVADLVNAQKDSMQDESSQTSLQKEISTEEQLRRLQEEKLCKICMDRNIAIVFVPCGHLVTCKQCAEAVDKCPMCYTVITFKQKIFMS
UniProt Q9P286: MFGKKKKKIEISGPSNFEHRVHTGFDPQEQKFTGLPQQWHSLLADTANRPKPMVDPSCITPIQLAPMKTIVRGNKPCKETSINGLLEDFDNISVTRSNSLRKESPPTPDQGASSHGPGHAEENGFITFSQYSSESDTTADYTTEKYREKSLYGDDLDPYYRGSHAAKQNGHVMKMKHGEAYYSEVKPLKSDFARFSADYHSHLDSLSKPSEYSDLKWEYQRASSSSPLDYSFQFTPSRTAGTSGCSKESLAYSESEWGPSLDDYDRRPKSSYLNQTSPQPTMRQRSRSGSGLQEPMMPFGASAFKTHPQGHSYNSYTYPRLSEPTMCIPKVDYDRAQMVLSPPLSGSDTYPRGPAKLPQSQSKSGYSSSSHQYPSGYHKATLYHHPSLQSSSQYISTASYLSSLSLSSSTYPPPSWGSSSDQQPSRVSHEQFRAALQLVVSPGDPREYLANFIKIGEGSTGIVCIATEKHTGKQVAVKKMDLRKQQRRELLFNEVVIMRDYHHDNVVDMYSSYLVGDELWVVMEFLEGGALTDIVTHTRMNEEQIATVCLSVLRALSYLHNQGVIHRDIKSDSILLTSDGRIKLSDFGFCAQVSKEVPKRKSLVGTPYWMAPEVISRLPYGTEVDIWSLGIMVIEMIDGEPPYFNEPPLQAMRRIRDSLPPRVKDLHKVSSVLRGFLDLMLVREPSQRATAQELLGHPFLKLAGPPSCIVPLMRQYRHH
UniProt Q9Y6K9: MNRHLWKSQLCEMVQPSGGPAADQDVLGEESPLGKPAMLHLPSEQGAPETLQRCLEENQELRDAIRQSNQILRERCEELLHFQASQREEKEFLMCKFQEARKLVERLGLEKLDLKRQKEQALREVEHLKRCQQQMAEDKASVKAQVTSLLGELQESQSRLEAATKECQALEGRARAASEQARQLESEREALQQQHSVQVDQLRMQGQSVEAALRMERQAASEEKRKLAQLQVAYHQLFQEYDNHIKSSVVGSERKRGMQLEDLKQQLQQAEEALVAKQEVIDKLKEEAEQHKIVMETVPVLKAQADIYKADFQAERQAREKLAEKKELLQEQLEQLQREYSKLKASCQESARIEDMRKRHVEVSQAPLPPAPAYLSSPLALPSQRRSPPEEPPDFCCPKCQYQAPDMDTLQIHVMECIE
UniProt Q9NWF9: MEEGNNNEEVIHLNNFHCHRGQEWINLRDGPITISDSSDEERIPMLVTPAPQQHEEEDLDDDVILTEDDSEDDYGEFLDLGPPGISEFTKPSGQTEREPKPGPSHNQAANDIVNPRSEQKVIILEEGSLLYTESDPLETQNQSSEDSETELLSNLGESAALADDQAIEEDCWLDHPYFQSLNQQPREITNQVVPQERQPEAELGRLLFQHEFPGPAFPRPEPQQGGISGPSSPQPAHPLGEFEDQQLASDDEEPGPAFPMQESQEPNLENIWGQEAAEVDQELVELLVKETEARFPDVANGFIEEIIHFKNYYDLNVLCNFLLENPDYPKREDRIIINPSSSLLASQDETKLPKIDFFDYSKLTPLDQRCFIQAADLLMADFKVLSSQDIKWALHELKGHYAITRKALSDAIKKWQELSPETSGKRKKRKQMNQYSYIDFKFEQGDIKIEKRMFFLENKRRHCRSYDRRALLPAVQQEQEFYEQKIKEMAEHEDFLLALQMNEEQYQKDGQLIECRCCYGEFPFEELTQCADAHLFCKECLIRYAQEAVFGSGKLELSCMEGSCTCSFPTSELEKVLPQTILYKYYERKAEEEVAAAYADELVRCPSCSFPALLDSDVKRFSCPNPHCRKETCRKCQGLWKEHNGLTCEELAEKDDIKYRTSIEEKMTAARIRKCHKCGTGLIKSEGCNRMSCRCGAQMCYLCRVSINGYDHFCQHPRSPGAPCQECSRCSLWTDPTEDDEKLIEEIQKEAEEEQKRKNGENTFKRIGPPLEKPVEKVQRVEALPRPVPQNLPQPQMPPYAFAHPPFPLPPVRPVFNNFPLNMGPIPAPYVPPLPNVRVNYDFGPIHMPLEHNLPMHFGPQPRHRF
UniProt P28074: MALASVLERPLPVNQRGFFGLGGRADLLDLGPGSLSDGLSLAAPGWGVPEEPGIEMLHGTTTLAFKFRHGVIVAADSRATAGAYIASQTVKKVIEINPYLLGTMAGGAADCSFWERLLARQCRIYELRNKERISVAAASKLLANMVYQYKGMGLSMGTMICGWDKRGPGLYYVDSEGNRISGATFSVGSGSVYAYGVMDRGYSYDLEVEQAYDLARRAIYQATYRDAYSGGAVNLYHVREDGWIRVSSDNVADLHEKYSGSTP

Key:
Assay in all cases: wNAPPA (well nucleic acid programmable protein array)
BIRC4 (human) = BIRC4 (human) (UniProt P98170)
PAK7 (human) = PAK7 (human) (UniProt Q9P286)
BIRC8 (human) = target: T1, BIRC8 (human) (UniProt Q96P09)
T1 sequence: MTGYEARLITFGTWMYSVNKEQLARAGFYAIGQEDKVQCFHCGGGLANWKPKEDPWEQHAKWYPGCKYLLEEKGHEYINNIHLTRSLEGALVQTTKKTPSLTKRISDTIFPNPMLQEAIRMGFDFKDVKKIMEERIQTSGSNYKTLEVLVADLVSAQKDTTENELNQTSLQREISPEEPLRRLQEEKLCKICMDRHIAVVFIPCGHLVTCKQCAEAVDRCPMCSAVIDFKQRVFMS

IKBKG (human) = IKBKG (human) (UniProt Q9Y6K9)
RNF216 (human) = RNF216 (human) (UniProt Q9NWF9)
PSMB5 (human) = PSMB5 (human) (UniProt P28074)

Measured: binding

B1: PLEKHN1-HaloTag (protein, UniProt Q494U1 1-611)
chain: MGNSHCVPQAPRRLRASFSRKPSLKGNREDSARMSAGLPGPEAARSGDAAANKLFHYIPGTDILDLENQRENLEQPFLSVFKKGRRRVPVRNLGKVVHYAKVQLRFQHSQDVSDCYLELFPAHLYFQAHGSEGLTFQGLLPLTELSVCPLEGSREHAFQITGPLPAPLLVLCPSRAELDRWLYHLEKQTALLGGPRRCHSAPPQRRLTRLRTASGHEPGGSAVCASRVKLQHLPAQEQWDRLLVLYPTSLAIFSEELDGLCFKGELPLRAVHINLEEKEKQIRSFLIEGPLINTIRVVCASYEDYGHWLLCLRAVTHREGAPPLPGAESFPGSQVMGSGRGSLSSGGQTSWDSGCLAPPSTRTSHSLPESSVPSTVGCSSQHTPDQANSDRASIGRRRTELRRSGSSRSPGSKARAEGRGPVTPLHLDLTQLHRLSLESSPDAPDHTSETSHSPLYADPYTPPATSHRRVTDVRGLEEFLSAMQSARGPTPSSPLPSVPVSVPASDPRSCSSGPAGPYLLSKKGALQSRAAQRHRGSAKDGGPQPPDAPQLVSSAREGSPEPWLPLTDGRSPRRSRDPGYDHLWDETLSSSHQKCPQLGGPEASGGLVQWI
binds: all assays above
